# From PubChem BioAssay AID2003 (Broad Institute, 2009)
# Some of the results follow. Results with a measured potency or affinity are listed apart. Entries without a call are filed as inconclusive in the source.
# Assay: PubChem AID 2003
# Conditions: H4 cells, SNCA 5'UTR luciferase reporter, luminescence; at 12 µM (top of the series) unless noted
row,Structure (SMILES),activation
1,Cc1cccc(Nc2nc3c(s2)CCCC3)c1,113%
2,CCOC(=O)c1sc2nc(NC(=O)C(C)(C)C)sc2c1C,75.1%
3,CC(C)c1ccc(NC(=O)C2CC3CCC2C3)cc1 (stereo unspecified),61%
4,CCN(CC)CCCNc1nc2ccccc2c2nc(-c3ccncc3)nn12,1.1%
5,CC(C)Cc1ccc(/C=C/C(=O)N2CCOCC2)cc1,35.4%
6,CN1C(=C2C(=O)OC(C)(C)OC2=O)Sc2ccccc21,23.5%
7,CC(C)C/C=C1\CCc2c([nH]c3ccccc23)C1=O,114%
8,Cn1c(SCc2ccccc2)nnc1-c1ccc2c(c1)OCO2,73.2%
9,Cc1csc2nc(CSc3nc4ccccc4o3)c(Br)n12,76.1%
10,O=C(NCc1ccccc1)c1c[nH]c2cc3c(cc2c1=O)OCCO3,54.1%
11,O=C(c1cccc(COc2ccc(Cl)cc2Cl)c1)N1CCN(c2ccccn2)CC1,22.5%
12,Cc1ccc(-n2c(C)cc(C(=O)CSc3nncs3)c2C)cc1,40.9%
13,CCCCNc1ncnc2c1cnn2-c1ccccc1,-24.3%
14,O=[N+]([O-])c1nn(-c2ccc3c(c2)OCCO3)n(O)c1=NCCC1=CCCCC1,42.3%
15,O=C(CCN1C(=O)S/C(=C\C=C\c2ccccc2)C1=O)Nc1ccc(O)cc1,121%
16,Cc1ccc(N=c2sc(C)c(C)n2C)cc1,48.9%
17,FC(F)Oc1ccc(N=C2SCC3CCCCN23)cc1 (stereo unspecified),52.4%
18,CC(=O)c1ccc(Oc2ncnc3sccc23)cc1,43.1%
19,O=[N+]([O-])c1ccccc1-c1nc(-c2ccc(Br)o2)no1,81.3%
20,Oc1ccc(/C=N/Nc2cccc3cccnc23)c(O)c1,156%
21,O=C(CCSc1ccc(Cl)cc1)N1CCCCCC1,44%
22,COc1cc2ccccc2cc1C(=O)Nc1ccc(N2CCN(C)CC2)cc1,-1%
23,O=C(COC(=O)/C=C/c1ccccc1[N+](=O)[O-])Nc1ccc(OCc2ccccc2)cc1,4.2%
24,COc1ccc(-c2ccc(-c3nnn(CC(C)=O)n3)cc2)cc1,88.3%

row,Structure (SMILES),activation
1,CC(C)c1nc2oc3ccccc3c(=O)c2c(=O)n1-c1ccccc1,78.1%
2,Cc1ccc(Nc2nc(=O)c3cccnc3s2)cc1,83.1%
3,O=C(NCCS(=O)(=O)NCCc1ccccc1)c1ccc2c(c1)OCO2,38.9%
4,O=C(CCC1CCCC1)Nc1ccc(Br)cn1,73.1%
5,CN(C)c1ccc(NC(=S)NC23CC4CC(CC(C4)C2)C3)cc1,63.9%
6,CCOc1ccc(C(=O)CSc2nnc3ccccn23)cc1,64.5%
7,N#C/C(=C\C=C\c1ccccc1[N+](=O)[O-])C(=O)NCc1ccccc1,54.4%
8,Brc1ccc2oc(-c3ccn[nH]3)cc2c1,40.9%
9,CCN=c1scc(C)n1/N=C/c1ccsc1,87.2%
10,Cc1c(-c2nc(-c3ccc(C(F)(F)F)cc3)no2)n(C)oc1=O,69.8%
11,O=C1CC(c2ccccc2)Sc2nc3ccccc3n21 (stereo unspecified),59.6%
12,CC(=O)N1N=C(c2ccc(C)cc2)OC1c1ccc(C(C)C)cc1 (stereo unspecified),73.7%
13,C[C@@H]1C[C@@H]2O[C@H]2/C=C\C=C\C(=O)Cc2c(Cl)c(O)cc(O)c2C(=O)O1,29.4%
14,COc1ccc(S(=O)(=O)n2ccc(-c3cnc(-c4ccccc4)s3)n2)cc1,59.1%
15,C/C(NC(=O)c1cccc(F)c1)=C1/C(=O)C[C@@H]2[C@H]1C2(C)C,101%
16,O=c1c(-c2cc3ccccc3o2)[n+]([O-])c2ccccc2n1OCc1ccccn1,150%
17,C/C(=N\OC(=O)c1ccccc1)c1cc(-c2ccc(Cl)cc2)no1,106%
18,CN1c2ccsc2/C(=N/Nc2ccc(F)cc2)CS1(=O)=O,83.6%
19,CCOc1c(OC(C)=O)ccc(/C=C/c2ccc3cccc(OC(C)=O)c3n2)c1[N+](=O)[O-],56.4%
20,S=C(c1ccc(-c2ccc(Cl)cc2Cl)o1)N1CCCCC1,175%
21,O=C(Nc1cccc(F)c1)Nc1ccc2c(c1)CCC2,57.1%
22,COc1cc(NC(=O)c2cc3nc(C)cc(C)n3n2)c(OC)cc1Cl,126%
23,O=C(Nc1ccccc1OC(=O)c1ccc(Cl)cc1)c1ccc(Cl)cc1,114%
24,Cc1ccc(S(=O)(=O)/N=C(/NC(=S)Nc2ccccc2)c2ccccc2)cc1,80.7%

row,Structure (SMILES),activation
1,O=C(O)CCCN1C(=O)/C(=C\C(Cl)=C\c2ccccc2)SC1=S,-11.1%
2,Cc1ccc2nc(-c3ccc(NS(=O)(=O)c4c(C)n(C)c(=O)n(C)c4=O)cc3)sc2c1,71.4%
3,CCN(CC)C(=O)N1c2ccccc2C=Cc2ccccc21,-38.2%
4,O=C(Nc1nc(=O)c2ccccc2s1)c1ccc(F)cc1,79.1%
5,Cc1cc(/C=N/NC(=O)c2cccc(F)c2)c(C)n1-c1ccccc1,112%
6,O=C(Nc1ccccc1)C(=O)Nc1ccc2c(c1)N(C(=O)C1CC1)CCC2,30.8%
7,Cc1ccc(-c2csc(NC(=O)C3=COCCO3)n2)cc1C,146%
8,Cc1nc(N)sc1N=Nc1ccc(Br)cc1,64.2%
9,O=C(NCCc1ccccc1)C1=COCCO1,21.7%
10,Fc1ccc(/C=C\c2nccc3c2[nH]c2ccccc23)cc1,30.8%
11,O=C(Nc1ccc2c(c1)oc1ccccc12)N1CCOCC1,69.6%
12,O=C(NC1CCCCC1)C(=S)NC1CCCCC1,62.4%
13,O=C(Nc1ccc(-c2nc3ccccc3s2)c(OC(=O)c2ccccc2)c1)c1ccccc1,106%
14,CCCC1CCC(c2ccc(OCC)cc2)=CC1=O (stereo unspecified),38.5%
15,COc1ccc(-c2cc3n(n2)CCc2nc4ccccc4n2-3)cc1,61.2%
16,Cc1c2cnn(CC(=O)NC3CCCC3)c(=O)c2c(C)n1Cc1ccccc1,24.3%
17,Cc1cc(/C=C(\C#N)C(=O)NC2CC2)c(C)[nH]1,71.8%
18,O=C(Nc1ccc2oc(=O)ccc2c1)c1cc2ccccc2o1,101%
19,CN1CCSc2ccc(C(=O)Nc3ccc(Cl)cc3)cc21,96.5%
20,O=C(Nc1ccccc1)Nc1ccc(-n2ccc(C(F)(F)F)n2)cc1,104%
21,Cc1occc1C(=O)N=Nc1c(O)n(C)c2ccccc12,-25.4%
22,CN(C)/C=N/c1ncnc2c1cnn2-c1ccc(C(F)(F)F)cn1,76.5%
23,CC(/C=N/NC(=O)c1cccc(F)c1)=C\c1ccccc1,23.1%
24,Cc1ccc(C(=O)NNc2ncnc3ccccc23)cc1,66.3%

row,Structure (SMILES),activation
1,COc1ccc2c(c1)CC/C2=N\OC(=O)c1cccc(C)c1,73%
2,COc1ccc(NC(=S)Nc2cc(C)ccn2)c(OC)c1,109%
3,Fc1ccc2nc(Nc3nc4c(s3)CCCC4)sc2c1,88.2%
4,N=c1oc2c3c4c(cc2cc1C(=O)Nc1ccccc1)CCCN4CCC3,183%
5,COc1cc(OC)cc(C(=O)Oc2ccc(/C=N/Nc3nc4ccccc4s3)cc2OC)c1,90.5%
6,Cc1c(C(=O)NCc2ccoc2)oc2ccc3c(c12)C(=O)CC(C)(C)O3,31.4%
7,Cc1cccc(N(C)C(=O)c2cc3cc4ccc(C)cc4nc3o2)c1,16%
8,O=C(/C=C/c1cnc2ccccc2n1)NC12CC3CC(CC(C3)C1)C2,65.7%
9,O=C(Nc1ccc(Br)cc1)c1cnc[nH]1,67.8%
10,CCC1=[N+](CC(=O)c2ccc(C)cc2)CCn2c(C)ccc21,84.3%
11,CCc1ccc(-c2ccc(C(=O)C(F)(F)F)[nH]2)cc1,66.1%
12,Cc1cc(=O)n2nc(-c3ccc(C(F)(F)F)cc3)sc2n1,37.2%
13,Cc1c(C(=O)/C=C/c2cccs2)oc2ccc(F)cc12,82.7%
14,CCSc1ncc(/C=N/Nc2ccc([N+](=O)[O-])cc2)n1C,164% [at 6 µM]
15,COc1ccc(NC(=O)NC(=O)c2ccccc2)cc1,34.1%
16,Cc1[nH]c2ccccc2c1C(=O)CSc1nc2ccccc2c(=O)n1CCCN1CCOCC1,-78.4%
17,O=C(NCCc1ccccc1)c1ccc(Cl)nc1,3.3%
18,CC1CCCN(C(=O)CSc2cnc3ccccc3n2)C1 (stereo unspecified),31.4%
19,Nc1ncn([C@H]2C[C@H](O)[C@@H](CO)O2)c(=O)n1,256%
20,COc1ccc(N/C=C\C(=O)c2ccc3c(c2)OCO3)cc1,37.2%
21,CCOC(=O)c1c(C)[nH]c(C2=NNC(=NC(C)COC)SC2)c1C (stereo unspecified),7.5%
22,CCOC(=O)N/N=C1\CCc2ccccc21,46.5%
23,CN(C)c1ccc(N=Cc2nc(-c3ccccc3)oc2OC(=O)c2cccc(Br)c2)cc1,120%
24,COc1ccccc1C(=O)COC(=O)c1ccc(N(C)C)cc1,65.6%

# A section from the list above, as a working copy:
row,Structure (SMILES),activation
15,COc1ccc(NC(=O)NC(=O)c2ccccc2)cc1,34.1%
16,Cc1[nH]c2ccccc2c1C(=O)CSc1nc2ccccc2c(=O)n1CCCN1CCOCC1,-78.4%

# Going on with the list.

row,Structure (SMILES),activation
1,Cc1ccc(/C=N/N=C/c2ccc(C)s2)s1,41.6%
2,CC(C)c1ccc(C(=O)NNC(=O)C2C3CCC(C3)C2C(=O)O)cc1 (stereo unspecified),166% [at 6 µM]
3,CC(C)(C)c1ccc(OCCn2ccccc2=O)cc1,42%
4,COc1cc(/C=C2/C(=N)N3N=C(CC(=O)N4CCOCC4)SC3=NC2=O)ccc1OCc1ccccc1,45.3%
5,CCOC(=O)c1cc(-c2ccc3c(c2)OCCO3)n[nH]1,34.9%
6,O=c1cccc2n1Cc1cc3ccccc3nc1-2,94%
7,O=c1n(-c2ccc(Br)cc2)cnn1-c1ncccc1[N+](=O)[O-],69.8%
8,O=[N+]([O-])c1ccccc1N/N=C1\CCc2ccccc21,109%
9,O=C(CSc1ccc(-c2ccccc2)nn1)N1CCCCC1,55.9%
10,O=C(Nc1ccc2cn[nH]c2c1)c1ccccc1F,40.7%
11,Cc1nc2ccccc2c(=O)n1NC(=O)/C=C/c1ccccc1Cl,71.1%
12,O=C(NC(=S)Nc1nc2c(s1)CCCC2)c1ccccc1,151% [at 6 µM]
13,Fc1ccc(CSc2nnc(-c3ccccn3)o2)cc1,47%
14,Clc1ccc(-c2cn3c(n2)CCC3)cc1,51.2%
15,Nc1nn(-c2cccc(F)n2)cc1-c1ccccc1,31%
16,O=C(O)c1ccc(N/N=C/C(Br)=C/c2ccccc2)cc1,160%
17,Oc1ccc(/C=N/Nc2ccc(C(F)(F)F)cn2)cc1,161%
18,Cc1ccc(-c2nc(N/N=C/c3ccccc3[N+](=O)[O-])c3ccccc3n2)cc1,61.9%
19,O=C1C2C3CCC(C3)C2C(=O)N1c1ccc(OS(=O)(=O)c2ccccc2)cc1 (stereo unspecified),73.3%
20,C=CCSc1nnc2c(n1)[nH]c1c(C)cccc12,71.3%

# 3 compounds out of the list, ordered by count of non-hydrogen atoms, descending:
row,Structure (SMILES),activation
2,CC(C)c1ccc(C(=O)NNC(=O)C2C3CCC(C3)C2C(=O)O)cc1 (stereo unspecified),166% [at 6 µM]
12,CC(=O)N1N=C(c2ccc(C)cc2)OC1c1ccc(C(C)C)cc1 (stereo unspecified),73.7%
10,Cc1c(-c2nc(-c3ccc(C(F)(F)F)cc3)no2)n(C)oc1=O,69.8%
